For this experiment, the target named is CheR of Pectobacterium atrosepticum SCRI1043 (Pectobacterium atrosepticum SCRI1043). The experiment can be described thus: ITC.

These are yes or no findings as the source states them, for the method shown. Binding calls can cover weak binding; strength is not graded here.

With NWEQF [NWETF derivative containing Q instead of T], the binding result is “binds”. Turning to NWEKF [NWEKF pentapeptide], the binding result is recorded as “binds”.

The values are drawn from doi:10.1101/2024.03.07.583918.
